Source: US9573904B2, “Aromatic compound and use thereof” (Sumitomo Chemical Company, Limited, priority 2013, dated 2017)
Some entries share one result that the patent states for a list of compounds.

Tests used:
Type in all cases: in vivo
[1] = tested on: barley net blotch fungus (Pyrenophora teres); assay: Test Example 3: barley net blotch control, foliar spray; conditions: 500 ppm spray on barley (NISHINOHOSHI); inoculated 2 days after spraying
[2] = tested on: barley scald fungus (Rhynchosporium secalis); assay: Test Example 8: barley scald control, foliar spray; conditions: 200 ppm spray on barley (NISHINOHOSHI); inoculated 2 days after spraying
[3] = tested on: soybean rust fungus (Phakopsora pachyrhizi); assay: Test Example 7: soybean rust control, foliar spray; conditions: 200 ppm spray on soybean (KUROSENGOKU); inoculated 2 days after spraying
[4] = tested on: cucumber anthracnose fungus (Colletotrichum lagenarium); assay: Test Example 9 and Comparative Test Example: cucumber anthracnose control, foliar spray; conditions: 200 ppm spray on cucumber (SAGAMI HANJIRO); inoculated one day after spraying
[5] = tested on: wheat leaf blotch fungus (Septoria tritici); assay: Test Example 5: wheat leaf blotch control, foliar spray; conditions: 500 ppm spray on wheat (APOGEE); inoculated 4 days after spraying

Measured: area of lesion on the treated plant relative to that on an untreated plant

CC(=O)Oc1ccccc1COc1ccc(-c2nn(C)c(Cl)c2C)cc1C [present compound 1]
≤ 30%: [1] | [2]

COC(=O)Oc1ccccc1COc1ccc(-c2nn(C)c(Cl)c2C)cc1C [present compound 2]
not listed: [5]
≤ 30%: all other assays above

COC(=O)Oc1cccc(C)c1COc1ccc(-c2nn(C)c(Cl)c2C)cc1C [present compound 3]
≤ 30%: all assays above
